Experimental data published in patent publication US20260263615A1 (priority 2023, published 2026).

Test: Fmoc solid-phase peptide synthesis; 2-CTC resin; HATU/DIPEA
Settings: whole synthesis, scale 3.00 mmol, TFA salt

1-(9H-fluoren-9-yl)-4,7,10,13,16,19,22,25,28,31-decamethyl-3,6,9,12,15,18,21,24,27,30-decaoxo-2-oxa-4,7,10,13,16,19,22,25,28,31-decaazatritriacontan-33-oic acid
isolated mass: 2856 mg
